{"source": "patent US6576607B1", "about": "“Methods using CNS neurite outgrowth modulators” (Acorda Therapeutics, priority 1995, dated 2003)", "tested_on": "dopaminergic neurons", "assay": "Protection of dopaminergic neurons from MPP+ neurotoxicity", "format": "cell-based, rat", "settings": "forskolin combined with PDE-IV inhibitor NQ-A", "protocol": "Cell culture, dopamine uptake and treatment with MPP+have been described (Hartikka et al., 1992). Primary cultures containing dopaminergic neurons were prepared from the ventral mesencephalon of 14-day-old fetal rats and plated in 24 well plates. A culture well usually contained 6×10^5 cells/well, of which 3-5% were dopaminergic. Duplicate cultures were prepared for dopamine uptake or tyrosine hydroxylase staining. Dopamine uptake was measured using tritiated dopamine at concentrations of 50 nM (sp, act. 45 Ci/mmol, New England Nuclear). The survival of dopaminergic neurons in the culture was assayed by counting tyrosine hydroxylase (TH) immunopositive neurons, stained with a monoclonal antibody to TH (Boehringer Mannheim).\nThe monoclonal L1 antibodies 327 and 557.B6 (referred to as 557) were added to the culture medium on the day of plating at concentrations of 7.5-120 μg/ml and left for 3 days. In addition to treatment of the culture medium with antibodies, they were also substrate coated prior to plating of the cells, as described (Appel et al., 1993). In experiments with MPP^+ (active metabolite of methyl-phenyl-tetrahydropyridine, MPTP), antibodies or cAMP-elevating agents were added to the culture medium of 5-day-old cultures, followed by 1 μM MPP^+ on day 6 and cells were fixed on day 8 for immunocytochemistry. […]", "note": "For at least one compound, name, drawing or mass did not settle the structure."}
{"smiles": "C=C[C@@]1(C)CC(=O)[C@]2(O)[C@@]3(C)[C@@H](O)CCC(C)(C)[C@@H]3[C@H](O)[C@H](OC(C)=O)[C@@]2(C)O1", "note": "[forskolin]", "values": [{"measurement": "protection from MPP+ toxicity", "result": "effectively protects against MPP^+ toxicity"}]}
